Reference: patent US20210363266A1
These are yes or no findings as the source states them, for the method shown. Some entries that bind do so weakly or less than the wild type.

Protein sequences, listed by entry. Tags and fused reporters are not part of them. Lines headed by an entry give the natural chain unless they say otherwise; changes in a name come on top. Residues count along the entry.
UniProt Q07011, residues 24-186: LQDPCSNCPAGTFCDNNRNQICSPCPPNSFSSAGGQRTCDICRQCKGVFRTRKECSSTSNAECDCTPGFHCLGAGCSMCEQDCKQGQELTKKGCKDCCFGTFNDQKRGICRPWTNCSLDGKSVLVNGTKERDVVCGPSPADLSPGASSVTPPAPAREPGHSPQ

Target: human 4-1BB His protein (Sinobiological, Beijing #10041-H08H) (human) (UniProt Q07011)
Assay: SPR Biacore T200

B1: humanized antibody huB1E10 (VH-c heavy chain and VL-c light chain) (antibody, human IgG2, kappa, V domains shown)
VH: EVQLVESGGGVVQPGRSLRLSCAASGFTFGDYYMYWVRQAPGKGLEWVATISEGGSYTYYPDNVKGRFTISRDNAKNTLYLQMNSLRAEDTAVYYCARYYSKALYAMDYWGRGTLVTVSS
VL: EIVLTQSPATLSLSPGERATLSCRASKSVSTSGFSYIHWYQQKPGQPPRLLIYTASNLESGVPARFSGSGSGTDFTLTISSLEPEDFAVYYCQHSRELPLTFGQGTKLEVKR
- binding: binds
